This note sets out measurements from article doi:10.1101/2020.05.19.104463.

This experiment deals with T1, GFP-RAB13(T22N) (human) (UniProt P51153).
T1 sequence: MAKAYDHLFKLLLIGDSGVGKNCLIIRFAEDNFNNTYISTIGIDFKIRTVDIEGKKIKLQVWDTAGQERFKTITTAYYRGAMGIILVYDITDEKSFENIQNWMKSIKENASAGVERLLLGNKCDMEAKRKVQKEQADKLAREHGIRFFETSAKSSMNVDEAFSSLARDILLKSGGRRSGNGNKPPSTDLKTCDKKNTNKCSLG
As to the kind of experiment: affinity purification with mass spectrometry.

No constants are given. Whether binding was seen depends on the method and setting. In cells and extracts the contact can be indirect. A yes stands for co-enrichment or nearness to the bait. Other partners may have been found. Where a sequence is shown, tags or fusion partners need not be part of it.

B1: RABIF/MSS4 (protein, UniProt P47224 1-123)
chain: MEPAEQPSELVSAEGRNRKAVLCQRCGSRVLQPGTALFSRRQLFLPSMRKKPALSDGSNPDGDLLQEHWLVEDMFIFENVGFTKDVGNIKFLVCADCEIGPIGWHCLDDKNSFYVALERVSHE
B1: the binding result is on record as “binds”.
